The numbers were not newly measured in patent US20030152515A1, “Method for estimating effective regimens and patient survival rates of antibiotic treatments for fatal infectious diseases” (priority 2002, published 2003), which cites them from elsewhere.

SMILES strings stand for the structures.

Series [1] has as its system gram positive and gram negative bacteria. As to conditions: human, in vivo; cited from earlier work.
In series [2] the test system is gram-positive and gram-negative organisms. As to conditions: in vivo; cited from earlier work.

In the case of `O=C(O)c1cn(C2CC2)c2cc(N3CCNCC3)c(F)cc2c1=O` [ciprofloxacin], the patients remaining culture-positive entry in series [1] is reported as “more than 60%”. Moreover, the “AUC/MIC values associated with minimum mortality rates” value in series [2] was 100 to 150.
